We go through three molecules from paper doi:10.1101/2023.04.07.535983.

Sequences of proteins named here, by UniProt entry; tags and fusion partners are left off.
UniProt P9WI13: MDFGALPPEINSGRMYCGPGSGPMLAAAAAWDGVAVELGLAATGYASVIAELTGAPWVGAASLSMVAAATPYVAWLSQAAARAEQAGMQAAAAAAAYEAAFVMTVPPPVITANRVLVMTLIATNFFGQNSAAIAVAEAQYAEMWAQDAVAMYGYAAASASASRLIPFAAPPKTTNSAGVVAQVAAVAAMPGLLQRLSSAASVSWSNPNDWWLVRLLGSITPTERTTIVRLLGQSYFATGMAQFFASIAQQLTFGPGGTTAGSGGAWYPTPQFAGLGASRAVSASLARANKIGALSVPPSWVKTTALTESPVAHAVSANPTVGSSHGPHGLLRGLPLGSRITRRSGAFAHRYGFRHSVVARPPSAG

No constants are given. Whether binding was seen depends on the method and setting. In cells and extracts the contact can be indirect. Some binding calls cover weakened binding; strength is not graded here. Sequences can lack the tags named with a protein.

In assay [1] the target is T1, PPE26-c-myc (pJEX55-PPE26) (Mycobacterium tuberculosis) (UniProt Q79FK6).
T1 sequence: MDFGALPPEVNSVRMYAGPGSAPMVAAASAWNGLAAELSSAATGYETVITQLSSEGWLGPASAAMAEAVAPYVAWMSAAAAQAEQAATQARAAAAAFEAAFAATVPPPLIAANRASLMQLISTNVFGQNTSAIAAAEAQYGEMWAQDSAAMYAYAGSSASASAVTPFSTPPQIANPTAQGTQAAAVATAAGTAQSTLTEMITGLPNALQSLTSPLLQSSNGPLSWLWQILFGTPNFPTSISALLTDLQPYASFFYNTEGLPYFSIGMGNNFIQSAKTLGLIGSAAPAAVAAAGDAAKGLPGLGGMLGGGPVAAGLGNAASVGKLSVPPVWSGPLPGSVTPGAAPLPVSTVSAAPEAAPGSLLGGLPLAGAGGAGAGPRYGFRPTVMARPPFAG
In words: co-IP.

The target in assay [2] is T2, PE18 (Rv1788), murine dihydrofolate reductase fragment fusion for M-PFC (Mycobacterium tuberculosis) (UniProt L7N649).
T2 sequence: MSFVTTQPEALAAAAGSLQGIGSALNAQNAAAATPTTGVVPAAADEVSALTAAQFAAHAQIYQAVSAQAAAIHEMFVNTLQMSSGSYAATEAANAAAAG
In words: split reporter.

The target in assay [3] is T3, PPE26 (Rv1789), murine dihydrofolate reductase fragment fusion for M-PFC (Mycobacterium tuberculosis) (UniProt Q79FK6).
T3 sequence: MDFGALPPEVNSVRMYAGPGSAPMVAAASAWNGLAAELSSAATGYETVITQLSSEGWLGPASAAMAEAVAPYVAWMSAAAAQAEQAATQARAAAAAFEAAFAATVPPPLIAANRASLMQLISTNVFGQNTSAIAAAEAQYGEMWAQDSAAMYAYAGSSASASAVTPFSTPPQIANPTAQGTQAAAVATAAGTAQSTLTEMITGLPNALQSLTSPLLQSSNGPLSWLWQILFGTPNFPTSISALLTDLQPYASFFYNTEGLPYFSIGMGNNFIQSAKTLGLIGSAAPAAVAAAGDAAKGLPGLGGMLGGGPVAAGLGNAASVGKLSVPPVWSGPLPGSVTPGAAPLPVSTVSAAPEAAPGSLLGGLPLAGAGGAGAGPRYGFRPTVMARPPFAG
The experiment in a line: split reporter.

Assay [4] concerns the target T4, PE18 (Rv1788), murine dihydrofolate reductase fragment fusion for M-PFC (Mycobacterium tuberculosis), L7N649.
T4 chain: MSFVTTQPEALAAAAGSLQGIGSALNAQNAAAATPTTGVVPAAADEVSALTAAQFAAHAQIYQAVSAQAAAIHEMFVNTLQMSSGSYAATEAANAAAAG
In words: split reporter. The settings on record: remark: other sources report otherwise.

Consider “PPE25-6xHis (pSCW54-PPE25) (from UniProt P9WI13 1-365)”, for which, in assay [1], the binding result is on record as “binds”.
With “PPE25 (Rv1787), murine dihydrofolate reductase fragment fusion for M-PFC (from UniProt P9WI13 1-365)”, the binding result in assay [2] is “no binding”; in assay [3], “binds”.

B1: PPE26 (Rv1789), murine dihydrofolate reductase fragment fusion for M-PFC, Q79FK6 1-393 (protein)
chain: MDFGALPPEVNSVRMYAGPGSAPMVAAASAWNGLAAELSSAATGYETVITQLSSEGWLGPASAAMAEAVAPYVAWMSAAAAQAEQAATQARAAAAAFEAAFAATVPPPLIAANRASLMQLISTNVFGQNTSAIAAAEAQYGEMWAQDSAAMYAYAGSSASASAVTPFSTPPQIANPTAQGTQAAAVATAAGTAQSTLTEMITGLPNALQSLTSPLLQSSNGPLSWLWQILFGTPNFPTSISALLTDLQPYASFFYNTEGLPYFSIGMGNNFIQSAKTLGLIGSAAPAAVAAAGDAAKGLPGLGGMLGGGPVAAGLGNAASVGKLSVPPVWSGPLPGSVTPGAAPLPVSTVSAAPEAAPGSLLGGLPLAGAGGAGAGPRYGFRPTVMARPPFAG
As to B1, in assay [4], the binding entry is “no binding”.
